Test system: Listeria pellet
Settings: compared with E. coli and Salmonella
Description: Various bacterial specimens can be prepared in a pellet form. A pellet is a condensed form of bacteria which allows them to be carried and handled more efficiently. Bacteria are grown in LB medium for 4 to 12 hours. When culturing is done, the bacteria density in medium is approximately 10^8 #/mL. To make the pellet, 25 mL of bacteria medium is stored in a centrifuge tube. The medium is centrifuged by 10,000 rpm for 10 minutes (Avanti J-20 XPI). During centrifugation, a pellet is formed at the bottom of a centrifuge tube.
There are two different sample plate preparations. A monoplex plate is a plate preparation format to test a rapid response of bacteria in single wells. The time resolution of the spectrum measurement is 2 minutes. A multiplex plate is a mode for measuring slow behavior using a measuring period is 30 minutes. For the multiplex, 16 wells are measured in parallel. A plate is firmly fixed on a translational stage controlled at 37 degrees Celsius or other temperature depending on the cell type and the bacterium. The plate is covered with a semi-permeable membrane which prevents the medium from drying out while permitting air molecule exchange.
Backscattered light from a specimen forms a speckle field consisting of many speckles with sizes determined by the point-spread-function of the imaging optics, and the speckle is delivered by a 4-f system (L1 and L2, f=15 cm). […]

O=C(O)c1cn(C2CC2)c2cc(N3CCNCC3)c(F)cc2c1=O [Cipro, Ciprofloxacin]
strength of spectral response to Cipro relative to other species: weakest response

Source: US20190376110A1, “METHOD TO DETECT BACTERIAL ACTIVITY AND PATHOGENICITY WITH BIODYNAMIC SENTINELS” (Purdue Research Foundation, priority 2018, published 2019)
